Experimental findings from PubChem BioAssay AID1347426 (Functional Genomics Laboratory (NCATS/FGL), 2020) are described below.

Hit rate of the full screen: of about 31,000 sequences, about 1,400 (4.5%) were called active.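 How the source made its calls: active means median seed-adjusted z-score above 1 or below -1; inactive means the rest.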 The list shows a part of the results.

A short description of the assay: Novel Modifiers of Survival Motor Neuron (SMN) Protein: Gene Identification via Genome-wide siRNA Screen. The conditions noted are these: HEK293T SMN2-luciferase reporter, siRNA knockdown, 72 h; actives lie on both sides. The text has this:
Spinal muscular atrophy (SMA) is the most common neuromuscular autosomal recessive disorder and one of the leading genetic causes of infant death. SMA results from mutations inducing loss of function or deletion in the survival of motor neuron-1 gene (SMN1), leading to deficiency of the survival motor neuron (SMN) protein. Although a second nearly identical gene, SMN2, is retained in humans, its expression primarily produces an aberrantly spliced isoform that is largely unstable and quickly degraded. We performed a genome-wide RNAi screen using a cell-based reporter assay to identify genes and pathways that modulate SMN protein stability. The screen identified over 200 genes that led to the greatest increase or decrease in luciferase expression.
Using HEK293T cells stably expressing a luciferase reporter that combines the promoter and splicing based cassettes in tandem with the major portion of the native SMN2 cDNA with luciferase, we performed a genome-wide RNAi screen to identify modulators of SMN protein levels. Luciferase is expressed when full-length SMN protein is generated with luminescence signal proportional to SMN protein levels. Our luciferase-based reporter assay was used to screen Ambion Silencer Select Human Druggable Genome siRNA library (10418 genes, 3 unique siRNAs per gene) using lipid-based reverse transfection.
Briefly, 1 pmol of each siRNA was spotted to a well of a 384-well plate (Corning, Corning, NY) and 20 microL of serum-free DMEM containing […] of Lipofectamine RNAiMax (Life Technologies, Carlsbad, CA) was then added to each well. Transfected cells were maintained at 37 degrees C in 5% CO2 for 72 hours, 20 microL of ONE-Glo Reagent (Promega) was added to wells for luciferase quantification. Raw luminescence reads were normalized to Ambion(R) Silencer(R) Negative Control #2 siRNA, then log10 transformed. A robust statistical measure of median absolute deviation (MAD) to standardize siRNA activities from each screen. Common Seed Analysis was used to help prioritize clean hits as opposed to those appearing to arise from seed based off-target effects. Candidate modulators were defined as the genes having a MAD score greater than 1.0 or less than -1.0.
On the technique in general: Reporter assays use an easily measured gene product as a stand-in for the process of interest.
With CAUCUUUCUUGAUCAACAUTT against CALR, the median seed-adjusted z-score was inactive: -0.795.
The figure for GAAUGACCAGAAUCUAGAATT against ALG9 is inactive: -0.267; for GCUGUGAUGUAGAAUCAAATT against SHBG it is inactive: 0.587.
With GCACAGUUCUCAGCAUUCATT against PAPPA2 the figure was inactive: -0.173; with UCUCCAAACCUGCUGCUAATT against MYL6B, inactive: 0.11.
Take GAGUGUAUAUGGUAGGGAATT against ATP6AP2: the median seed-adjusted z-score was inactive: -0.705.
Regarding GUGAGGAUCUUAAAGACCATT against LIMA1, the median seed-adjusted z-score was inactive: -0.359.
With GCAUCGGCAUCUUCACGCUTT against FZD5 the figure was inactive: -0.129; with GCUUCUAUCAUGAUUGGAATT against OLA1, inactive: -0.408.
The figure for CGGUGACUCUUUAUGCACATT against PMPCB is inactive: 0.507; for CCACCAUACGAUACAGAGATT against NTN4 it is inactive: 0.462; for GGAUAAGUCAAUACAAUUUTT against HS3ST5 it is inactive: -0.725.
The figure for GAUCCGUGGUUGCACCUAUTT against DPP10 is inactive: -0.0478; for GGCAAGAAGUUCGAAGUGATT against NTN1 it is inactive: -0.0419.
As for GGGCAUUUCUGGGACAGGUTT against MPG, the median seed-adjusted z-score was inactive: -0.0888.
With GGGUCUGCAAGGAUAUGAATT against ACY1 the figure was inactive: -0.153.
With GCAGCACAAUGAGAGGCUATT against ACTN1 the figure was inactive: 0.
The figure for GGCUAAUCGUGAACCGGAATT against DOCK8 is inactive: 0.243; for GGCGCAGAAUGAAUUCCAATT against TCEB3 it is inactive: 0.232.
In the case of GGCACUCCAUGCUCACUGUTT against AGPAT1, the median seed-adjusted z-score was active: -1.38.
With GUAGCUCGGCAAUUAAUAATT against TXNDC4 the figure was inactive: 0.351; with CCCUUCCUCUAUUCGAACATT against POLDIP3, inactive: 0.108; with GGGAUUCUCUCUCUAAGUATT against HOXD4, inactive: 0.566.
With GAAGCUCCCGAUUGCAAUATT against SIRT4 the figure was inactive: 0.623; with UCCCAAACCUUCACCAUCATT against THAP8, inactive: -0.872; with CCUUUAUCAGAUGAAUAAATT against RBM11, inactive: -0.0341.
AUAUUUCCCAUGAUACUUUTT against BXDC1: the median seed-adjusted z-score is inactive: 0.173.
The figure for GUACAAUACAAACACUUAATT against ORC4L is inactive: -0.286.
With CGCCCACGCAGAACAUGAATT against SS18L1 the figure was inactive: -0.174; with AGAUUUCCCUGGGAUCUAUTT against COPS8, inactive: 0.148; with GAACCGAACUUUACCAUUATT against XRN2, inactive: -0.312.
With CCCUGUCUGUGAAGCAUGATT against TXNDC2 the figure was active: -1.29; with GGAUUAUCUAUUCAAGGAATT against RAD18, inactive: 0.562; with CGACGAGAAGACCUAUUUATT against CAB39, inactive: -0.144.
For CCUUUACCAUGCUCAUUUATT against ASS1, the median seed-adjusted z-score was inactive: 0.0886.
The figure for GCAAGUACCUGUAAUUGAATT against KLF3 is inactive: 0.628; for CCAUGGAGACUUUCUACUATT against TUBB6 it is inactive: 0.63; for GCACAUUAAAGGGCAAGAATT against GALM it is inactive: -0.111.
Consider GGAAUCAACUAUUUCGAGATT against EZR, for which the median seed-adjusted z-score was inactive: 0.0344.
With GGACCUCACCUCUACAGCATT against PSMB7, the median seed-adjusted z-score is inactive: 0.131.
With GGACUAAACUACCUCCAAATT against KCNE3 the figure was active: -1.33; with GCAAGUGUAUGGAUUAUUCTT against LARP6, inactive: 0.0335; with GAAGGGAAAUGAGUACCGATT against TRIM68, inactive: -0.628.
With GAUCAGCACUCGAAGGUCATT against HNF4A the figure was inactive: -0.0274.
The figure for CACUAUAAAUGAUAUGACUTT against FOXQ1 is inactive: 0.369.
Take CAUUAGCCCAGGUAUCUAUTT against CREB1: the median seed-adjusted z-score is inactive: 0.391.
The figure for CAUUUCCAUUGGUUAUUUATT against AK1 is inactive: -0.0471.
On to GAGGAACAGGAAUAACAUUTT against GCG, for which the median seed-adjusted z-score was active: -1.18.
With GCUGCAUUGUGGGUGAUGATT against PTGIR the figure was inactive: -0.0806.
The figure for CCAUGACUGUCAAUCGUCATT against GFM1 is inactive: -0.0641; for GAAAGAUGGUUACCGAAUATT against RYK it is inactive: -0.446.
The figure for GCCUAACCCGGAGAACUUUTT against CYP1B1 is inactive: -0.261; for GUUCCUUAUUGUUAAGGUATT against PCDHB10 it is inactive: -0.09.
Consider GGUGAAUACUUCCGGUACATT against SULT2B1, for which the median seed-adjusted z-score is inactive: 0.
